Measurements as given in patent US10907116B2, “Olfactive compositions comprising cyclohexyl-alkyl carbinols” (P2 SCIENCE, INC., priority 2015, dated 2021).
“Also recorded” adds a separate entry of the source.

Test: Olfactory analysis of compound (I) on fragrance blotter
Settings: presented on the fragrance blotter neat

## CC(C)C(O)C1CC=CCC1 (stereo not shown) [compound (I), 1-(cyclohex-3-en-1-yl)-2-methylpropan-1-ol]
  aroma (olfactory description): minty aroma that can be described as fresh, invigorating, and menthol-like; also recorded: fresh, minty, menthol-like smell; also recorded: minty aroma, which can be described as fresh, invigorating, and menthol-like
